{"sequences": {"note": "Sequences of proteins named here, by UniProt entry; tags and fusion partners are left off. A change or cut given only in a name is not applied to a line headed by its entry.", "UniProt Q9UL54": "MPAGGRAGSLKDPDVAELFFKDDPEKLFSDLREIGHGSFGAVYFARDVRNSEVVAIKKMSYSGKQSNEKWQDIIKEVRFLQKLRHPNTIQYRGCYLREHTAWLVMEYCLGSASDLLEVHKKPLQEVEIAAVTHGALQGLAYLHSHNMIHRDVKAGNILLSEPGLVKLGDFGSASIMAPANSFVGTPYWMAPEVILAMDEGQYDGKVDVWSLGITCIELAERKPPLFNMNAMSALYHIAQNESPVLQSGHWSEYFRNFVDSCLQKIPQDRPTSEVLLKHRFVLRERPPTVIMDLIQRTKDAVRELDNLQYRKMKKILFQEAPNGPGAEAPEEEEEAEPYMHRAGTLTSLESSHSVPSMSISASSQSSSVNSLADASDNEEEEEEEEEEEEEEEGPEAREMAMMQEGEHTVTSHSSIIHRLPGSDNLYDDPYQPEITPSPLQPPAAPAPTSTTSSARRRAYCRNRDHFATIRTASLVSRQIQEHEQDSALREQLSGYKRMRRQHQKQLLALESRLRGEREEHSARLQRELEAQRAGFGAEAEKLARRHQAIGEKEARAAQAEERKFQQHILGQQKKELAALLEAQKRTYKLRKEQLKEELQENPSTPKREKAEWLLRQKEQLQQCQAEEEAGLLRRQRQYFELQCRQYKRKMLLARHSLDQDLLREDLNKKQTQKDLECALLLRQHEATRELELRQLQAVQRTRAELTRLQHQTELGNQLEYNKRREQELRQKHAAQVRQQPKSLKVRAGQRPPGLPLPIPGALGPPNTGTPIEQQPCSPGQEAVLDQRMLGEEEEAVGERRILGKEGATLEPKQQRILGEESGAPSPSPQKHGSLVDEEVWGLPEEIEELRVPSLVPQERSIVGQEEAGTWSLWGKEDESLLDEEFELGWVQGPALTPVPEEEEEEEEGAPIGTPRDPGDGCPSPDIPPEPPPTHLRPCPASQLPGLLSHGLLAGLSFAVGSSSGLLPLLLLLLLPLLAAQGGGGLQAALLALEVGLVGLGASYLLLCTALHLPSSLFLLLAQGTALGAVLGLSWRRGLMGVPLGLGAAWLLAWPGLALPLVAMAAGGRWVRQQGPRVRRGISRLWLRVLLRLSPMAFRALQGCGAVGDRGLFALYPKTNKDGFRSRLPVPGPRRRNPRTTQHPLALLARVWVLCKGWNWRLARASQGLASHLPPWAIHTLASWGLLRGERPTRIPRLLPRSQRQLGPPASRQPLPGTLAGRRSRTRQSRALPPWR", "UniProt P08247, whole entry, looked up": "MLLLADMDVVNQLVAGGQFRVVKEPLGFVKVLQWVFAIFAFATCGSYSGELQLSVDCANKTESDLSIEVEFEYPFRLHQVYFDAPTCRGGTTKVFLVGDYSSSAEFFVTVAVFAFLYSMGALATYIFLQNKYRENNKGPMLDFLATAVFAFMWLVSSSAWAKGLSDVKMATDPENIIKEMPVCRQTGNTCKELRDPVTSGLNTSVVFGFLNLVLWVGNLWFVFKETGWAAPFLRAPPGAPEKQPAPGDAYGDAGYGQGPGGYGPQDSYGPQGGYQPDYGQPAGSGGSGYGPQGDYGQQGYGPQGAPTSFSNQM", "UniProt Q9BXI6": "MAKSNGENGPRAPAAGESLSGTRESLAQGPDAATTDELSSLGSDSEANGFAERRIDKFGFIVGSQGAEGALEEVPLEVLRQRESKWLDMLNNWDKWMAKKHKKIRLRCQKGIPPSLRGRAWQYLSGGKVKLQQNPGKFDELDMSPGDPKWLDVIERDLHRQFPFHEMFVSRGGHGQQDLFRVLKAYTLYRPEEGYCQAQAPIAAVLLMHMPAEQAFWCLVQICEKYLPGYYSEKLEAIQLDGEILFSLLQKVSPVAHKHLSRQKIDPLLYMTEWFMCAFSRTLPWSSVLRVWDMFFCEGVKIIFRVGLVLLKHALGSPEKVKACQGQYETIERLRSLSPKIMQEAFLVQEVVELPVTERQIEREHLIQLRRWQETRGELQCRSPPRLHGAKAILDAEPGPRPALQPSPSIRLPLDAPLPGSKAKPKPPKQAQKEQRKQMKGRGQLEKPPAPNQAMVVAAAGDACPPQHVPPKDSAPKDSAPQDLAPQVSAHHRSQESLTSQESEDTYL", "UniProt Q13033": "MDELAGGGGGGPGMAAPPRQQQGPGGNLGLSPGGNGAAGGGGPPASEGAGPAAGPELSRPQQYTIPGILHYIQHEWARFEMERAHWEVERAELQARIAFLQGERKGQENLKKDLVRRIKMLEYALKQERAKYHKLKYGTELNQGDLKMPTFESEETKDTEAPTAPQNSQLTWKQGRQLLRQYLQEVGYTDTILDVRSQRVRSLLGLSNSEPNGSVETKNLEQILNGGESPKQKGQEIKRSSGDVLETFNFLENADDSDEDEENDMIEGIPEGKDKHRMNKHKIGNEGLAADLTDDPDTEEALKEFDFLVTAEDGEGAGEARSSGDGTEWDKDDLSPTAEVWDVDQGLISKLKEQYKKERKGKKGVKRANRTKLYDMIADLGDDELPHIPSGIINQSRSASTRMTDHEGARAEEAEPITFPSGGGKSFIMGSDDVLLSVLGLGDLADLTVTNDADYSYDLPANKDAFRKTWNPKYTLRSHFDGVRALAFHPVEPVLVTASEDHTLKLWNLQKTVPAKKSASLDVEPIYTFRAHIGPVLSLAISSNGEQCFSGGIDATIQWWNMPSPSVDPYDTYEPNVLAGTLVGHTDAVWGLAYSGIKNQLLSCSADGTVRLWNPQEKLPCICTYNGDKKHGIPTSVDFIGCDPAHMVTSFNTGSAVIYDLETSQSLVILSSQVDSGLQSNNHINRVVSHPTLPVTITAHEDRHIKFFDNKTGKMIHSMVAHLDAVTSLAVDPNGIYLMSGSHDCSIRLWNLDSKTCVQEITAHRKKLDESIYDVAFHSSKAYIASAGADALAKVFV", "UniProt Q9Y2Z0": "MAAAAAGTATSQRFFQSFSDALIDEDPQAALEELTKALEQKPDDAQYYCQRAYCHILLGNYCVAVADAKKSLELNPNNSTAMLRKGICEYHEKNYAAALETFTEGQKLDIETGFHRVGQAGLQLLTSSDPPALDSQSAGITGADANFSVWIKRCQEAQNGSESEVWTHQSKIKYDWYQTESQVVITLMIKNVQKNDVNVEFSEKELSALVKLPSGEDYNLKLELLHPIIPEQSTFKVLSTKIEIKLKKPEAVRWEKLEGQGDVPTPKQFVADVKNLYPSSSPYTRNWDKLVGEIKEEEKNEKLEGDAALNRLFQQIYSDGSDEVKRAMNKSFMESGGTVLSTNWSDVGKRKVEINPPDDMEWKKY", "UniProt O60347": "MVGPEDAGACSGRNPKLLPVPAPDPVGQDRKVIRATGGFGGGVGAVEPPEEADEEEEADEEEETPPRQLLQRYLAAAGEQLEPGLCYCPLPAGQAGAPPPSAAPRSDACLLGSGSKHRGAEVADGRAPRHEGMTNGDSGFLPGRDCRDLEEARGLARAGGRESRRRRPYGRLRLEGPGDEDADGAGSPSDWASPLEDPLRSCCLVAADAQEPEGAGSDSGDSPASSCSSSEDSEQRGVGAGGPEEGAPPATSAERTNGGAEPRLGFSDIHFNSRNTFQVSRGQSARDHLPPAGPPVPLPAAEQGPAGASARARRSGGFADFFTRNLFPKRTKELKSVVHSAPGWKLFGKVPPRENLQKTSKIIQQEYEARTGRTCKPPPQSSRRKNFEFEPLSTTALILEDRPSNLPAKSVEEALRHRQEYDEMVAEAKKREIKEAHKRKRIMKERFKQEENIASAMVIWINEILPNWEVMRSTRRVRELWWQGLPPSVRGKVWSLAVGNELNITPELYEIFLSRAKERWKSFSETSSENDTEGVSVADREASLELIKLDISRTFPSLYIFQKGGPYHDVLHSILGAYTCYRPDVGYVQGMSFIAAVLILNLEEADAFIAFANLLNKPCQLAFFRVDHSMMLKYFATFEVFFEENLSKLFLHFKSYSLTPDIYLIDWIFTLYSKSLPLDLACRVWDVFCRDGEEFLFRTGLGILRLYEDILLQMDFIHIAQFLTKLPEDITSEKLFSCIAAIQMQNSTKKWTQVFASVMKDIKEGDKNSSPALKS", "UniProt Q6UWL2": "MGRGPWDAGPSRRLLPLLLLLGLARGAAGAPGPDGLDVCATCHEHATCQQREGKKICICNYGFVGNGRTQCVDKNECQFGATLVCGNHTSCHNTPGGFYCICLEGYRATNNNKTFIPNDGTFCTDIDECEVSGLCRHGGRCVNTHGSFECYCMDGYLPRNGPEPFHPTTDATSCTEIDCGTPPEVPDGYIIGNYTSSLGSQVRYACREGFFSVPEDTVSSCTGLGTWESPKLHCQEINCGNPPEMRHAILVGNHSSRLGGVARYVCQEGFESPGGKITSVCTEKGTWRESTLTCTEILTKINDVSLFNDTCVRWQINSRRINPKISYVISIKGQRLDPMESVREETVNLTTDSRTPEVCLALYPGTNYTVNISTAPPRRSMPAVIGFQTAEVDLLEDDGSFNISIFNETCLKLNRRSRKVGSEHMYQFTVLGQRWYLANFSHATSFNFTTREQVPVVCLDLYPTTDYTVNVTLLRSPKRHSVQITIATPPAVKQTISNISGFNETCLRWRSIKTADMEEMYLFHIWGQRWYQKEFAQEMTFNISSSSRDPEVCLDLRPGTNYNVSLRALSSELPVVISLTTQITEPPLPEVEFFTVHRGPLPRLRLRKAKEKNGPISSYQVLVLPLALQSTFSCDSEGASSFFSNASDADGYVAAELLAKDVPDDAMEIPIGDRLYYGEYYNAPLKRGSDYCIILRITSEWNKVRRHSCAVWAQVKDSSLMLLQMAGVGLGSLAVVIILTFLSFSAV", "UniProt Q8N2H4": "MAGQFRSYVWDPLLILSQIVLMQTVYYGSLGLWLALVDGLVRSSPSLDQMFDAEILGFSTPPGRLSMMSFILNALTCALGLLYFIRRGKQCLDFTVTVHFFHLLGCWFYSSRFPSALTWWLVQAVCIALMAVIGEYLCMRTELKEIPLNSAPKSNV", "UniProt Q16514": "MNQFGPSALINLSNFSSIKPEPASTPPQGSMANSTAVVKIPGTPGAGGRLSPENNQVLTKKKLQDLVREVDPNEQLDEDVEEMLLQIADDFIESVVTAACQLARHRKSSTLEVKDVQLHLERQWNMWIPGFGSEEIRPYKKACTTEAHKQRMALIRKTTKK", "UniProt Q1ZZU3": "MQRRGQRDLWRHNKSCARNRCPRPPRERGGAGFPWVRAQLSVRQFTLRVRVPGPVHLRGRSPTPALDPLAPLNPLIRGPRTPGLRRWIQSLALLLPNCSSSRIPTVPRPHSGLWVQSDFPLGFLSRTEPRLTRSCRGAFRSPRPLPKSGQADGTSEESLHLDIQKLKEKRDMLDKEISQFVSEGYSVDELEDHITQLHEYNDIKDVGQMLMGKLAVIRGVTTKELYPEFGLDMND", "UniProt Q6ZWJ1": "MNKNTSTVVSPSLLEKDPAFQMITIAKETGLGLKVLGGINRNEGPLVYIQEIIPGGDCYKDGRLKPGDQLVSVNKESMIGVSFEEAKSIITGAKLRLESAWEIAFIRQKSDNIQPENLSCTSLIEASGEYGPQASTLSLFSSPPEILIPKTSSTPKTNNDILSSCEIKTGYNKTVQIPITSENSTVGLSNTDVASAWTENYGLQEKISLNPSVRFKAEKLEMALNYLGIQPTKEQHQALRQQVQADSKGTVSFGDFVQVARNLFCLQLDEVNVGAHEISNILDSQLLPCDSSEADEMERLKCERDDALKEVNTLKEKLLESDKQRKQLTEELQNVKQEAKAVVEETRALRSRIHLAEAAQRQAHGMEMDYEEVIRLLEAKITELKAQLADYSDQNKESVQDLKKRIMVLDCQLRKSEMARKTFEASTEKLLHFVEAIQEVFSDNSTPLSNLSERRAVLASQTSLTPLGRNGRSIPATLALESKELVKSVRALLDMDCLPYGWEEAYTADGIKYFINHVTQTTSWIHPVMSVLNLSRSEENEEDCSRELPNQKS", "UniProt Q9UI15": "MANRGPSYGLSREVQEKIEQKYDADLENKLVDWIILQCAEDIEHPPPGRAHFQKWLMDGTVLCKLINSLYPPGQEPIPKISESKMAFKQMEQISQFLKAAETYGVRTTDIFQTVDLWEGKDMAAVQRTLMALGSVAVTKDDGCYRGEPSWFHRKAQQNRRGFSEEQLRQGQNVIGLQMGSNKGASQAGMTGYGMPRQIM", "UniProt Q9UBI4": "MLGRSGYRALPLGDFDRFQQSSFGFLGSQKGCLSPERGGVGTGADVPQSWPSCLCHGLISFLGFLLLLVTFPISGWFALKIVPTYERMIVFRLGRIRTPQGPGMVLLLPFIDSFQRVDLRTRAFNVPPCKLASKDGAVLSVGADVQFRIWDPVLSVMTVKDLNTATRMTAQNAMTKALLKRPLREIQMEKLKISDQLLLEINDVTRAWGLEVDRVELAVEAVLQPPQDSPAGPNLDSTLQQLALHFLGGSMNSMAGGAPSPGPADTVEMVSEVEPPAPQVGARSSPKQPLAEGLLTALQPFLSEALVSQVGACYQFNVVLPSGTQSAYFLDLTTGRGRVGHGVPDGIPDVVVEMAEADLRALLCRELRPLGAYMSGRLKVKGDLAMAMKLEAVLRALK"}, "source": "the supplement of paper PMC10849652", "note": "This is one part of the list."}
{"compound": "CC1=C(C=C(C=C1)NC(=O)C2=CC(=CC=C2)N(C)C)NC(=O)C3=CC=C(C=C3)O", "assay": "log2 fold change, soluble protein after heating vs DMSO (PISA); higher = thermal stabilisation; K562 cells, 10 uM, 30 min; active = over 0.2 and 3.5 SD of the protein, either way, in both replicates (recomputed)", "summary_of_the_method": "(§1)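 Soluble protein was quantified by TMTpro 16plex LC-MS/MS after channel sums were equalised. It was obtained as the supernatant after 21,000xg for 90 min from pooled aliquots of K562 cells (2×10^6 cells/mL, 10 μM compound, 30 min) heated for 3 min across 48°C-58°C and extracted in PBS with 0.5% NP-40 at 4°C. Thermal stability values are relative to control samples and come from duplicates. They are given as log2 fold changes.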"}
{"target": "STK35 (UniProt Q8TDR2)", "log2 fold change": "inactive: -0.121"}
{"target": "TATDN1 isoform 2 (UniProt Q6P1N9)", "log2 fold change": "inactive: 0.056"}
{"target": "STON2 isoform 3 (UniProt Q8WXE9)", "log2 fold change": "inactive: 0.02"}
{"target": "TAOK2 (UniProt Q9UL54)", "log2 fold change": "inactive: 0.024"}
{"compound": "CC1=CC=C(C=C1)SC2=C3C=C(SC3=CN=C2)C(=O)N", "assay": "log2 fold change, soluble protein after heating vs DMSO (PISA); higher = thermal stabilisation; K562 cells, 10 uM, 30 min; active = over 0.2 and 3.5 SD of the protein, either way, in both replicates (recomputed)", "summary_of_the_method": "as §1"}
{"target": "STXBP5L (UniProt Q9Y2K9)", "log2 fold change": "inactive: -0.102"}
{"target": "SYP (UniProt P08247)", "log2 fold change": "inactive: -0.017"}
{"target": "STK36 (UniProt Q9NRP7)", "log2 fold change": "inactive: -0.07"}
{"target": "TBC1D10A (UniProt Q9BXI6)", "log2 fold change": "inactive: -0.103"}
{"target": "SUZ12 (UniProt Q15022)", "log2 fold change": "inactive: 0.054"}
{"target": "STK40 isoform 4 (UniProt Q8N2I9)", "log2 fold change": "inactive: -0.02"}
{"target": "STRN3 isoform 2 (UniProt Q13033)", "log2 fold change": "inactive: 0.011"}
{"target": "TAZ (UniProt Q16635)", "log2 fold change": "inactive: 0.068"}
{"target": "SYK (UniProt P43405)", "log2 fold change": "inactive: -0.025"}
{"target": "SUGT1 isoform 2 (UniProt Q9Y2Z0)", "log2 fold change": "inactive: 0.052"}
{"target": "TATDN2 (UniProt Q93075)", "log2 fold change": "inactive: 0.048"}
{"target": "TBC1D12 (UniProt O60347)", "log2 fold change": "inactive: 0.055"}
{"target": "SUSD1 isoform 2 (UniProt Q6UWL2)", "log2 fold change": "inactive: 0.105"}
{"target": "SYS1 (UniProt Q8N2H4)", "log2 fold change": "inactive: -0.061"}
{"target": "STK35 (UniProt Q8TDR2)", "log2 fold change": "inactive: -0.108"}
{"target": "TATDN1 isoform 2 (UniProt Q6P1N9)", "log2 fold change": "inactive: 0.232"}
{"target": "TADA1 (UniProt Q96BN2)", "log2 fold change": "inactive: 0.05"}
{"target": "SYTL4 (UniProt Q96C24)", "log2 fold change": "inactive: 0.038"}
{"target": "TAF12 (UniProt Q16514)", "log2 fold change": "inactive: -0.045"}
{"target": "STS (UniProt P08842)", "log2 fold change": "inactive: 0.368"}
{"target": "TAOK2 (UniProt Q9UL54)", "log2 fold change": "inactive: 0.062"}
{"target": "SWI5 (UniProt Q1ZZU3)", "log2 fold change": "inactive: 0.055"}
{"target": "TAGLN (UniProt Q01995)", "log2 fold change": "inactive: 0.292"}
{"compound": "CC1=NC(=CC=C1)C2=C(N=C(N2)C(C)(C)C)C3=CC4=NC=CN=C4C=C3", "assay": "log2 fold change, soluble protein after heating vs DMSO (PISA); higher = thermal stabilisation; K562 cells, 10 uM, 30 min; active = over 0.2 and 3.5 SD of the protein, either way, in both replicates (recomputed)", "summary_of_the_method": "as §1"}
{"target": "STXBP5L (UniProt Q9Y2K9)", "log2 fold change": "inactive: 0.136"}
{"target": "SYP (UniProt P08247)", "log2 fold change": "inactive: -0.064"}
{"target": "SUPT7L (UniProt O94864)", "log2 fold change": "inactive: 0.055"}
{"target": "TBC1D10A (UniProt Q9BXI6)", "log2 fold change": "inactive: -0.093"}
{"target": "TAF5 (UniProt Q15542)", "log2 fold change": "inactive: -0.318"}
{"target": "SUZ12 (UniProt Q15022)", "log2 fold change": "inactive: -0.156"}
{"target": "STRN3 isoform 2 (UniProt Q13033)", "log2 fold change": "inactive: -0.078"}
{"target": "SYK (UniProt P43405)", "log2 fold change": "inactive: -0.386"}
{"target": "SUGT1 isoform 2 (UniProt Q9Y2Z0)", "log2 fold change": "inactive: 0.009"}
{"target": "TATDN2 (UniProt Q93075)", "log2 fold change": "inactive: -0.07"}
{"target": "SUSD1 isoform 2 (UniProt Q6UWL2)", "log2 fold change": "inactive: -0.097"}
{"target": "STXBP4 (UniProt Q6ZWJ1)", "log2 fold change": "inactive: -0.035"}
{"target": "STON2 isoform 3 (UniProt Q8WXE9)", "log2 fold change": "inactive: 0.051"}
{"target": "TAF12 (UniProt Q16514)", "log2 fold change": "inactive: -0.072"}
{"target": "TAOK2 (UniProt Q9UL54)", "log2 fold change": "inactive: 0.08"}
{"target": "SWI5 (UniProt Q1ZZU3)", "log2 fold change": "inactive: -0.128"}
{"target": "TAGLN3 (UniProt Q9UI15)", "log2 fold change": "inactive: -0.036"}
{"target": "TAGLN (UniProt Q01995)", "log2 fold change": "inactive: 0.142"}
{"compound": "CCCCN(Cc1ccc(C(=O)NO)cc1)C(=O)Nc1ccccc1 [Nexturastat A]", "assay": "log2 fold change, soluble protein after heating vs DMSO (PISA); higher = thermal stabilisation; K562 cells, 10 uM, 30 min; active = over 0.2 and 3.5 SD of the protein, either way, in both replicates (recomputed)", "summary_of_the_method": "as §1"}
{"target": "SYP (UniProt P08247)", "log2 fold change": "inactive: 0.004"}
{"target": "TBC1D10A (UniProt Q9BXI6)", "log2 fold change": "inactive: 0.07"}
{"target": "TASP1 (UniProt Q9H6P5)", "log2 fold change": "inactive: 0.672"}
{"target": "TAF5 (UniProt Q15542)", "log2 fold change": "inactive: 0.029"}
{"target": "SUGP2 (UniProt Q8IX01)", "log2 fold change": "inactive: 0.279"}
{"target": "STRN3 isoform 2 (UniProt Q13033)", "log2 fold change": "inactive: -0.118"}
{"target": "SYK (UniProt P43405)", "log2 fold change": "active: 0.901"}
{"target": "TATDN2 (UniProt Q93075)", "log2 fold change": "inactive: 0.092"}
{"target": "TBC1D12 (UniProt O60347)", "log2 fold change": "inactive: 0.177"}
{"target": "STXBP4 (UniProt Q6ZWJ1)", "log2 fold change": "inactive: 0.108"}
{"target": "SYTL4 (UniProt Q96C24)", "log2 fold change": "inactive: -0.049"}
{"target": "TAOK2 (UniProt Q9UL54)", "log2 fold change": "active: 0.487"}
{"target": "SWI5 (UniProt Q1ZZU3)", "log2 fold change": "inactive: -0.015"}
{"target": "TAGLN3 (UniProt Q9UI15)", "log2 fold change": "inactive: -0.036"}
{"compound": "CCCS(=O)(=O)Nc1ccc(F)c(C(=O)c2c[nH]c3ncc(-c4ccc(Cl)cc4)cc23)c1F [vemurafenib]", "assay": "log2 fold change, soluble protein after heating vs DMSO (PISA); higher = thermal stabilisation; K562 cells, 10 uM, 30 min; active = over 0.2 and 3.5 SD of the protein, either way, in both replicates (recomputed)", "summary_of_the_method": "as §1"}
{"target": "SYP (UniProt P08247)", "log2 fold change": "inactive: 0.106"}
{"target": "TBC1D10A (UniProt Q9BXI6)", "log2 fold change": "inactive: 0.139"}
{"target": "TAF5 (UniProt Q15542)", "log2 fold change": "inactive: 0.146"}
{"target": "STRN3 isoform 2 (UniProt Q13033)", "log2 fold change": "inactive: -0.048"}
{"target": "SYK (UniProt P43405)", "log2 fold change": "inactive: -0.097"}
{"target": "STOML1 (UniProt Q9UBI4)", "log2 fold change": "inactive: -0.017"}
{"target": "SUGT1 isoform 2 (UniProt Q9Y2Z0)", "log2 fold change": "inactive: -0.034"}
{"target": "TATDN2 (UniProt Q93075)", "log2 fold change": "inactive: 0.168"}
{"target": "TBC1D12 (UniProt O60347)", "log2 fold change": "inactive: 0.072"}
{"target": "SUSD1 isoform 2 (UniProt Q6UWL2)", "log2 fold change": "inactive: -0.004"}
{"target": "STXBP4 (UniProt Q6ZWJ1)", "log2 fold change": "inactive: -0.106"}
{"target": "SUPT5H isoform 2 (UniProt O00267)", "log2 fold change": "inactive: 0.232"}
{"target": "TAF12 (UniProt Q16514)", "log2 fold change": "inactive: -0.027"}
{"target": "SWI5 (UniProt Q1ZZU3)", "log2 fold change": "inactive: 0.042"}
{"target": "TAGLN3 (UniProt Q9UI15)", "log2 fold change": "inactive: -0.117"}
